The nature of the test: qHTS Assay for Modulators of Lamin A Splicing. To be noted: HeLa LMNA splicing GFP/RFP minigene ratio, 48 h. Put shortly: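 Read-out is the ratio of GFP to DsRed2 object intensity, acquired by 488 nm laser-scanning cytometry on HeLa lamin A-EGFP minigene reporter cells. Compound incubation 48 hrs at 37 °C in Opti-MEM with 2% FBS; DMSO 0.5% final.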
(In general: In qHTS, concentration-response curves come from the screen itself.)

Where [1] appears, read: measured here: RFP viability control channel.
Where [2] appears, read: measured here: GFP splicing reporter channel.

Experimental findings from PubChem BioAssay AID1487 (National Center for Advancing Translational Sciences (NCATS), 2009) are described below.

This is one part of the list. Shown are side measurements of this screen, not its main read-out; they come without a call. Compounds called inactive in the main read-out are mostly missing here. Words in brackets tell the shape of the fitted curve; partial curves, single points and poor fits give uncertain potencies.

By AC50 is commonly meant the midpoint of the concentration-response curve, whichever way the signal moves. With `CCOC(=O)N1CCN(Cc2nc3c(c(=O)n(C)c(=O)n3C)n2Cc2cccc3ccccc23)CC1`, the concentration at half-maximal activity (AC50) under setting [1] is 22.4 µM [rising, single point]. With `CC(Oc1ccc(F)cc1)C(=O)Nc1sc2c(c1C(=O)NCc1cccnc1)CCCC2` (stereo not given), the half-maximal activity concentration (AC50) is 35.5 µM [rising, single point] under setting [2] and 31.6 µM [rising, single point] under setting [1]. Consider `CC1CN(C(=O)c2cc3cc([N+](=O)[O-])ccc3oc2=O)CC(C)O1` (stereo not given), for which the AC50 under setting [2] is 7.08 µM [falling, full curve, poor fit].

As to `COC(=O)C1C(C(C)C)N(c2ccccc2)OC1(C)O` (stereo not given), the half-maximal activity concentration (AC50) was 6.31 µM [falling, single point] under setting [2] and 5.62 µM [falling, single point] under setting [1]. Consider `O=C(Nc1cccc(S(=O)(=O)C(F)F)c1)c1ccc(S(=O)(=O)N2CCCC2)cc1`, for which, under setting [2], the AC50 is 31.6 µM [falling, single point]. As to `C(=N\NC(=Nc1ccccc1)c1ccccn1)/c1ccccn1`, the AC50 was 2.51 µM [falling, partial curve] under setting [2] and 35.5 µM [rising, single point] under setting [1]. Consider `O=C(c1ccccc1)N(c1ccccc1)C1C=CS(=O)(=O)C1` (stereo not given), for which the AC50 under setting [1] was 0.0282 µM [rising, full curve, poor fit]. Same read-out and setting: to `CC12CC(NC(=O)N1c1cccc(C(=O)NCc3ccc4c(c3)OCO4)c1)c1cc(Cl)ccc1O2` (stereo not given) belongs 25.1 µM [rising, single point]. On to `Cc1ccccc1/C=N/Nc1ccnc2cc(Cl)ccc12`, for which the half-maximal activity concentration (AC50) under setting [2] is 15.8 µM [rising, single point] and the concentration at half-maximal activity (AC50) under setting [1] was 31.6 µM [rising, single point].

Take `Cc1csc(NC(=O)CCCSc2nc3ccccc3s2)n1`: the concentration at half-maximal activity (AC50) under setting [1] was 15.8 µM [rising, single point].

In the case of `Cc1ccccc1-c1nc(SCC(=O)NCc2ccco2)c2c(=O)n(C)c(=O)n(C)c2n1`, the AC50 by setting is: under setting [2], 0.316 µM [rising, partial curve, poor fit]; under setting [1], 0.398 µM [rising, partial curve, poor fit].

Turning to `CCCOc1ccccc1C1NC(=O)NC(C)=C1C(=O)OCCOCC` (stereo not given), under setting [1], the AC50 is 1.58 µM [rising, partial curve]. Take `Cc1[nH]c2ccccc2c1C(=O)CSC(=S)N(C)C1CCCCC1`: the AC50 reads like this: under setting [2], 12.6 µM [rising, partial curve]; under setting [1], 15.8 µM [rising, partial curve]. Take `O=C(Nc1nc2ccc(S(=O)(=O)N3CCCC3)cc2s1)c1ccccn1`: the AC50 under setting [1] is 35.5 µM [falling, single point]. Regarding `Cc1cc(Cl)nc2c(C(C)C)cccc12`, the concentration at half-maximal activity (AC50) runs as follows: under setting [2], 1.41 µM [rising, partial curve, poor fit]; under setting [1], 2.24 µM [rising, single point].

Consider `Cc1nc2ccccc2n1CC(O)Cn1c(C(F)(F)F)nc2ccccc21` (stereo not given), for which the AC50 under setting [1] is 31.6 µM [rising, single point]. On the same count and under the same terms, to `CC(=O)c1ccc(NC(=S)NC(C)c2ccc(Cl)cc2Cl)cc1` (stereo not given) belongs 20 µM [rising, single point]; to `CCC(=O)c1ccc(OCC(O)Cn2nc(C)c(C(C)=O)c2C)cc1` (stereo not given), 0.178 µM [falling, full curve, poor fit]. On the same count and under the same terms, to `Cc1onc(-c2ccccc2Cl)c1C(=O)Nc1cccc2nsnc12` belongs 10 µM [rising, single point]. Consider `CCOC(=O)/C(=C\c1cccnc1)C(=O)c1cc(C(C)=O)c(Nc2ccccc2)s1`, for which the AC50 reads like this: under setting [2], 5.62 µM [falling, single point]; under setting [1], 3.16 µM [falling, single point]. For `COc1ccccc1CNC(=S)NCCc1ccccc1`, under setting [1], the AC50 is 20 µM [rising, single point]. For `CCN(CC)c1ccc(N=Cc2ccccc2[N+](=O)[O-])cc1`, the AC50 by setting is: under setting [2], 12.6 µM [rising, partial curve]; under setting [1], 25.1 µM [rising, partial curve]. Turning to `COCc1nc2ccccc2n1Cc1c(F)cccc1Cl`, the AC50 under setting [2] was 0.0282 µM [rising, full curve, poor fit].

On to `Cc1nn(C)c2ncc(C(N)=O)c(Oc3ccc(Cl)cc3)c12`, for which the concentration at half-maximal activity (AC50) was 0.00501 µM [falling, full curve, poor fit] under setting [2] and 14.1 µM [falling, partial curve, poor fit] under setting [1].

For `CC(=O)N1CCN(c2nc(CC(C)C)c3c(c2C#N)CCC3)CC1`, the concentration at half-maximal activity (AC50) under setting [1] is 0.00447 µM [rising, full curve, poor fit]. For `O=C(NNC(=O)c1ccccc1Cl)c1ccccc1Cl`, the half-maximal activity concentration (AC50) under setting [2] is 0.0708 µM [rising, full curve]. As to `CO[C@H]1C=CO[C@]2(C)Oc3c(C)c(O)c4c(O)c(c5c(c4c3C2=O)NC2(CCN(CC(C)C)CC2)N=5)=NC(=O)C(C)=CC=C[C@@H](C)[C@@H](O)[C@@H](C)[C@@H](O)[C@@H](C)[C@@H](OC(C)=O)[C@@H]1C`, the AC50 under setting [2] was 1.41 µM [falling, partial curve, poor fit].

In the case of `Cc1ccc(C(=O)NC(=S)NNC(=O)COc2ccccc2C)cc1`, under setting [1], the half-maximal activity concentration (AC50) was 17.8 µM [rising, single point].

Regarding `CN1C(=O)N(C)c2ccc(C=O)c3cccc1c23`, the AC50 under setting [1] was 3.55 µM [rising, full curve]. `Cc1cc(NC(=O)c2ccc(F)cc2)n(-c2ccccn2)n1`: the AC50 under setting [1] is 35.5 µM [falling, single point]. Regarding `CN1CCOc2cc(S(=O)(=O)Nc3ccc(F)cc3)ccc21`, under setting [2], the AC50 was 11.2 µM [rising, single point]. In the case of `c1csc(CCNc2ncnc3sc4c(c23)CCC4)c1`, under setting [1], the AC50 was 5.01 µM [rising, partial curve]. For the molecule `O=C(CCNC(=O)Cn1ccc2ccccc2c1=O)NCCC1=CCCCC1`, the half-maximal activity concentration (AC50) under setting [2] is 20 µM [rising, partial curve].

Turning to `CC[C@]1(O)CC2CN(CCc3c([nH]c4ccccc34)[C@@](C(=O)OC)(c3cc4c(cc3OC)N(C=O)[C@H]3[C@@](O)(C(=O)OC)[C@H](OC(C)=O)[C@]5(CC)C=CCN6CC[C@]43[C@@H]65)C2)C1` (stereo not given in full), the half-maximal activity concentration (AC50) under setting [2] was 0.158 µM [falling, full curve, poor fit] and the AC50 under setting [1] is 0.0282 µM [falling, full curve].

`C/C(N)=C(/C#N)C(=O)COC(=O)CNS(=O)(=O)c1c(F)cccc1F`: under setting [2], the AC50 is 0.158 µM [rising, full curve, poor fit]. Turning to `CCOC(=O)C1(CCCc2ccccc2)CCN(C(=O)c2cc(C)nc(C)n2)CC1`, the AC50 under setting [2] was 10 µM [falling, partial curve, poor fit] and the AC50 under setting [1] was 10 µM [falling, partial curve, poor fit]. On to `CN(c1ccc(O)cc1)c1nc(-c2ccccc2)cs1`, for which the half-maximal activity concentration (AC50) under setting [1] is 0.1 µM [rising, full curve]. Turning to `O=S(Cc1ccc(Br)cc1)Cc1nnc(SCc2c(F)cccc2Cl)n1-c1ccccc1` (stereo not given), the AC50 was 5.01 µM [rising, partial curve, poor fit] under setting [2] and 4.47 µM [rising, full curve] under setting [1].

For `CC(=O)c1ccc(S(=O)(=O)N2CCN(C)CC2)cc1`, the AC50 under setting [1] is 0.794 µM [falling, partial curve].

As for `Cc1cccc(OCCCSc2nc3ccc(C)cc3[nH]2)c1`, the AC50 by setting is: under setting [2], 22.4 µM [rising, single point]; under setting [1], 35.5 µM [rising, single point]. For the molecule `COc1ccc(C(=O)N2CCN(Cc3cc(=O)n4nc(-c5ccccc5C)sc4n3)CC2)cc1OC`, under setting [2], the concentration at half-maximal activity (AC50) is 1 µM [rising, partial curve, poor fit].

Take `O=C(NCCc1ccccc1)C(c1ccccc1)N(C(=O)c1csnn1)C1CC1` (stereo not given): under setting [2], the concentration at half-maximal activity (AC50) was 0.316 µM [rising, partial curve, poor fit].

As for `COc1ccc(N(CC(=O)N2CCc3ccccc32)S(=O)(=O)c2c(C)noc2C)cc1`, under setting [2], the AC50 was 10 µM [rising, partial curve].

Consider `COc1ccc(-c2noc(Cc3ccc(Cl)cc3)n2)cc1OC`, for which the half-maximal activity concentration (AC50) was 15.8 µM [rising, single point] under setting [2] and 28.2 µM [rising, single point] under setting [1]. Regarding `Fc1ccccc1-c1ccc(/C=N/Nc2nc3ccccc3[nH]2)o1`, the half-maximal activity concentration (AC50) under setting [1] is 3.16 µM [rising, partial curve]. Still for that read-out and setting: to `CC(C)(C)NC(=O)CSCc1ccc(Br)cc1` belongs 0.282 µM [falling, full curve, poor fit]. As to `Cc1cccc(/C(N)=N/OC(=O)N2CCOCC2)c1`, the half-maximal activity concentration (AC50) under setting [2] was 14.1 µM [falling, single point] and the AC50 under setting [1] was 28.2 µM [falling, single point]. As to `CC(=O)Nc1ccc(S(=O)(=O)N2CCN(C3CCCCCCC3)CC2)cc1`, the AC50 under setting [2] is 14.1 µM [rising, partial curve, poor fit] and the half-maximal activity concentration (AC50) under setting [1] was 11.2 µM [rising, single point]. As for `O=C(Nc1nc(-c2ccccc2)cs1)C1COc2ccccc2O1` (stereo not given), under setting [1], the AC50 was 35.5 µM [rising, single point]. Regarding `CC(c1nccs1)N(C)C(=O)CCc1nnc(CCc2ccccc2)o1` (stereo not given), the half-maximal activity concentration (AC50) under setting [1] was 1.26 µM [falling, full curve, poor fit]. Turning to `NC(=S)N/N=C/c1ccc(-c2cccc([N+](=O)[O-])c2)o1`, the concentration at half-maximal activity (AC50) reads like this: under setting [2], 35.5 µM [falling, single point]; under setting [1], 35.5 µM [falling, single point]. Turning to `O=C(CNC(=O)c1ccccc1F)OCc1csc(-c2ccccc2)n1`, under setting [1], the AC50 is 35.5 µM [rising, single point]. The same measure, in the same setting: to `CSC(=S)N/N=C/c1ccc(Br)cc1` belongs 3.55 µM [rising, full curve]. Turning to `Fc1ccc(NC(=S)Nc2ccc(Br)cc2)cc1`, the concentration at half-maximal activity (AC50) under setting [2] was 35.5 µM [rising, single point] and the AC50 under setting [1] is 35.5 µM [rising, single point]. `CCOC(=O)N1CCN(CCC(=O)Nc2ccc(Br)cc2)CC1`: the concentration at half-maximal activity (AC50) under setting [1] is 35.5 µM [rising, single point]. On the same count and under the same terms, to `COC(=O)Cc1ccc(NC(=S)N2CCN(c3ccc(OC)cc3)CC2)cc1` belongs 14.1 µM [rising, single point].
